Measured values: the supplement of paper PMC10849652
This is one part of the list.

By UniProt entry, the sequences of proteins in these tests, tags left out. Where a name states a change or a piece, a line headed by the entry shows the natural chain unless it says otherwise.
UniProt Q9NTX5: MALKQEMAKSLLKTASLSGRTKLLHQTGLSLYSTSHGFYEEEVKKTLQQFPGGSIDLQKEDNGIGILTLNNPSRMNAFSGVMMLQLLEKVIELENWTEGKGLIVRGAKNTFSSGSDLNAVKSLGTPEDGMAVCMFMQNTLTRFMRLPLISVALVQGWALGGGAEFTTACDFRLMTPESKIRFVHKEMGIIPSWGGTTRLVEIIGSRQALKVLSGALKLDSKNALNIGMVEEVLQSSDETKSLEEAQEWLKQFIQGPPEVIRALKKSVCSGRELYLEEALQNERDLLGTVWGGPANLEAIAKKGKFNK
UniProt Q08426: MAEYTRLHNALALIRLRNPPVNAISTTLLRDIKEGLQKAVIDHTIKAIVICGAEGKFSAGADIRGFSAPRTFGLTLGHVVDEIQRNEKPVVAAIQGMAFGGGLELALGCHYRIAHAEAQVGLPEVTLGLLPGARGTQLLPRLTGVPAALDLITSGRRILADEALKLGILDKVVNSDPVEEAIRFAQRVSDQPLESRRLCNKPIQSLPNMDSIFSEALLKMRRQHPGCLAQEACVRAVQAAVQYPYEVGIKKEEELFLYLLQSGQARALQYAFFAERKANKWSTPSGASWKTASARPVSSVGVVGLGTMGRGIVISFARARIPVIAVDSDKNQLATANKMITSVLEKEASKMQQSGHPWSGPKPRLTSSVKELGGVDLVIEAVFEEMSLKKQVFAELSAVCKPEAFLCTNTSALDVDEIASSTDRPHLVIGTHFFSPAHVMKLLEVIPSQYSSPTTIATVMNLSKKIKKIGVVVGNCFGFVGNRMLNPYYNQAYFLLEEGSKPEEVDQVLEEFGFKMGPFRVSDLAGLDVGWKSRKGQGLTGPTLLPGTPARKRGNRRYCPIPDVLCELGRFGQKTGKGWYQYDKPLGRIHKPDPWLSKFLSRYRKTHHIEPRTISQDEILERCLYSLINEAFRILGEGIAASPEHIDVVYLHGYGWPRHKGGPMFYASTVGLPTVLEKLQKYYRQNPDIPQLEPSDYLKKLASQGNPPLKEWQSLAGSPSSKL
UniProt Q8NDI1: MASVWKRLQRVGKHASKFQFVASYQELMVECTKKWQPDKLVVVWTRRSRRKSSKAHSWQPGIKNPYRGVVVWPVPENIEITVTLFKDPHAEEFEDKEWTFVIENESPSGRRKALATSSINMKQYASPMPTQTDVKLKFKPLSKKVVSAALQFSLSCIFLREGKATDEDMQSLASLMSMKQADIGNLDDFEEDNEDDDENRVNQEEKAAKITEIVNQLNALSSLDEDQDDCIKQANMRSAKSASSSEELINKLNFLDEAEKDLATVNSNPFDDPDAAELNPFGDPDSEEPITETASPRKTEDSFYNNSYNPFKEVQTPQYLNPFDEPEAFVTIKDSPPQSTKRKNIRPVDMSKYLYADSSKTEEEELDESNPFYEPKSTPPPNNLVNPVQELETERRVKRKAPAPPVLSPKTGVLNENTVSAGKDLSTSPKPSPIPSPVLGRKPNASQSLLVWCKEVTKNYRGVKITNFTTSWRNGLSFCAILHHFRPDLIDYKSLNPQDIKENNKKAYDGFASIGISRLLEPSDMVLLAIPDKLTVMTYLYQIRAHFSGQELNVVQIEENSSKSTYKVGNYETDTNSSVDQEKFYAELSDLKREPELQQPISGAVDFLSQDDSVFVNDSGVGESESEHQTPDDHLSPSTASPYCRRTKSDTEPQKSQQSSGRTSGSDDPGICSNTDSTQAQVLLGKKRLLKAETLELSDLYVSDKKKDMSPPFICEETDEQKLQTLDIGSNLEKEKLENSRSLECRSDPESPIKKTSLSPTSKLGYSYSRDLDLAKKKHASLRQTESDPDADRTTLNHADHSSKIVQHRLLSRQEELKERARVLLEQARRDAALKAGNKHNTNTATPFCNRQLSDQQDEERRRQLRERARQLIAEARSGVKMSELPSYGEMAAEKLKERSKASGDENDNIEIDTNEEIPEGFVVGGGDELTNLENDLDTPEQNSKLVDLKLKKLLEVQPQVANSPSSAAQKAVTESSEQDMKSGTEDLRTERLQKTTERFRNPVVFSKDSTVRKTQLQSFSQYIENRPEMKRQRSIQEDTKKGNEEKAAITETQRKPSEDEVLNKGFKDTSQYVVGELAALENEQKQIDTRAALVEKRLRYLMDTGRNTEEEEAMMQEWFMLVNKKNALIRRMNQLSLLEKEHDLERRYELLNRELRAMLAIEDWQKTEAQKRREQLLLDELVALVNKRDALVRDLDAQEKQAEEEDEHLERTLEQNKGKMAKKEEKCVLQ
UniProt P98172: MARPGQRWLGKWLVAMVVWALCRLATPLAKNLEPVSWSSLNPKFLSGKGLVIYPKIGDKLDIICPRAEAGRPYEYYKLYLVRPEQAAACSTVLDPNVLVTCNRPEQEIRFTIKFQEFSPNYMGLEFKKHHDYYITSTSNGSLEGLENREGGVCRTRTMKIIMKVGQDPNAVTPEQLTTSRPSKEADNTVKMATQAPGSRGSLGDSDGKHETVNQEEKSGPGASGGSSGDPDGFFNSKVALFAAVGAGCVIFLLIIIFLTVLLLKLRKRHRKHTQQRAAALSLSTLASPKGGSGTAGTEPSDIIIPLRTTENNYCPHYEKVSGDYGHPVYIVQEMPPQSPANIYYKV
UniProt Q9H9B1: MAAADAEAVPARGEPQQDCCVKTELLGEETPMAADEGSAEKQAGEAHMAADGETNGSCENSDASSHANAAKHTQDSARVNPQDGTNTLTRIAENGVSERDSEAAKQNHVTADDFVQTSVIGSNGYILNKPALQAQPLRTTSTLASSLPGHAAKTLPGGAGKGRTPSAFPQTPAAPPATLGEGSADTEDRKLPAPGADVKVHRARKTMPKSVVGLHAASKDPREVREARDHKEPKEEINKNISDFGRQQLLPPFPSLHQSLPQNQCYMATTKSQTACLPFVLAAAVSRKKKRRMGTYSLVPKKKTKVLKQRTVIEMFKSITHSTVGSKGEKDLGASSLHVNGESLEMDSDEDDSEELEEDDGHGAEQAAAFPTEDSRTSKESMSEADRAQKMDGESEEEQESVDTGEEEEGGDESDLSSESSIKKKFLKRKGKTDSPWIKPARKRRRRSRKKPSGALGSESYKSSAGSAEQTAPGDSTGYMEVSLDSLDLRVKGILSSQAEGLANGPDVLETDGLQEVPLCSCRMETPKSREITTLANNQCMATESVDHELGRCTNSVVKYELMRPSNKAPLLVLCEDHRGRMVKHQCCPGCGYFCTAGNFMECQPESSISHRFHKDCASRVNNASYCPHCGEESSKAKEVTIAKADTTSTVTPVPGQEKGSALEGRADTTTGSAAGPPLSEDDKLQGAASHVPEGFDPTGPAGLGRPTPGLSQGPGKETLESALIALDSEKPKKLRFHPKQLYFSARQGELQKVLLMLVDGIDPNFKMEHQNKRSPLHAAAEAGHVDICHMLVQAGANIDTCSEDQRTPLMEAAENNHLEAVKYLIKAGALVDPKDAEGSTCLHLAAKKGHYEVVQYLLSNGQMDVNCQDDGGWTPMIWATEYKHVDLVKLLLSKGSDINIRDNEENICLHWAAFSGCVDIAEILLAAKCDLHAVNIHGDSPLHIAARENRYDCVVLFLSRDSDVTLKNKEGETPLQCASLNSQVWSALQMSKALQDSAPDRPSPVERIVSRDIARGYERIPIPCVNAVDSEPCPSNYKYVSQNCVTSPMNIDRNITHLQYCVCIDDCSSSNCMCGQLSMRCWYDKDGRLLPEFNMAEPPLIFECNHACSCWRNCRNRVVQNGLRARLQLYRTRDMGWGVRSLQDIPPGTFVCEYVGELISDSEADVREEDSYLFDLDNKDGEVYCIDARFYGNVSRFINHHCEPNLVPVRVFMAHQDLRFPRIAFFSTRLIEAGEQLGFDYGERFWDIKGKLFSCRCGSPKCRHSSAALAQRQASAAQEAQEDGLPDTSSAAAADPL
UniProt Q6P2E9: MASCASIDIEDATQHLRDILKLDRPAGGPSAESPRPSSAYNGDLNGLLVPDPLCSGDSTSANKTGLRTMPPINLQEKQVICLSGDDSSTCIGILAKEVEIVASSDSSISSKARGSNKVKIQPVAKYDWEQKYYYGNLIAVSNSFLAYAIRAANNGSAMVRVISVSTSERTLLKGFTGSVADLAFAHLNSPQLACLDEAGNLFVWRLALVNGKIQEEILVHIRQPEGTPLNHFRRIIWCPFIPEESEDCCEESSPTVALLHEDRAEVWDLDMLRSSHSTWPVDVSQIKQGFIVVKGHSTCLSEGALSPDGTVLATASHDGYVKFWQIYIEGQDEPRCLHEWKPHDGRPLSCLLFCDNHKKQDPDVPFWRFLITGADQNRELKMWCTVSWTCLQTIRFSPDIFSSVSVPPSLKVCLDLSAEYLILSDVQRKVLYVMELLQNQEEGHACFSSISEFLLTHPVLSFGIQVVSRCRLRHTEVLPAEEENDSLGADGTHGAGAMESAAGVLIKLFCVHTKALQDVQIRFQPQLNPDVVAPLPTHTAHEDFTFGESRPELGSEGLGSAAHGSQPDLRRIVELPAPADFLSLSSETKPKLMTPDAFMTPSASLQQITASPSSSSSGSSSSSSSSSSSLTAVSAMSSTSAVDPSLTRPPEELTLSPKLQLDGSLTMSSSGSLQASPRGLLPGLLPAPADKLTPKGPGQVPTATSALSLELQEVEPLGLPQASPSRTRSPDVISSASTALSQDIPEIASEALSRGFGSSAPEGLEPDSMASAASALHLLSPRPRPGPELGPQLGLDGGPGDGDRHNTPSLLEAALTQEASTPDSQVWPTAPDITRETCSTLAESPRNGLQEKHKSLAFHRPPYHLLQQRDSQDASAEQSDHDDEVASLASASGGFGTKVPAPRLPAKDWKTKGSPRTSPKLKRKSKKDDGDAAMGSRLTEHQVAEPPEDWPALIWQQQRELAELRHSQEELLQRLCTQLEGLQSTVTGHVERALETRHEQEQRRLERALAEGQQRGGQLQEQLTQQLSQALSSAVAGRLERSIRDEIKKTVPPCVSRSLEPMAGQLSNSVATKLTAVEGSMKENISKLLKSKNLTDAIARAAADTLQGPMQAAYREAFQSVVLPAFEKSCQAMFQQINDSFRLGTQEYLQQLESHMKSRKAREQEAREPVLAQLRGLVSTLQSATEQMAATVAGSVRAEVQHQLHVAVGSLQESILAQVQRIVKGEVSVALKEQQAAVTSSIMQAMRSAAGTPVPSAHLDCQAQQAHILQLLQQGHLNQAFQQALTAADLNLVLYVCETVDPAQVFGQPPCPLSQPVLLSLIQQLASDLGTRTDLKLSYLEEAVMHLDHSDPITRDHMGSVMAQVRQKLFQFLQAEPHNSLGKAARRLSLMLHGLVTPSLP
UniProt P26641, whole entry, looked up: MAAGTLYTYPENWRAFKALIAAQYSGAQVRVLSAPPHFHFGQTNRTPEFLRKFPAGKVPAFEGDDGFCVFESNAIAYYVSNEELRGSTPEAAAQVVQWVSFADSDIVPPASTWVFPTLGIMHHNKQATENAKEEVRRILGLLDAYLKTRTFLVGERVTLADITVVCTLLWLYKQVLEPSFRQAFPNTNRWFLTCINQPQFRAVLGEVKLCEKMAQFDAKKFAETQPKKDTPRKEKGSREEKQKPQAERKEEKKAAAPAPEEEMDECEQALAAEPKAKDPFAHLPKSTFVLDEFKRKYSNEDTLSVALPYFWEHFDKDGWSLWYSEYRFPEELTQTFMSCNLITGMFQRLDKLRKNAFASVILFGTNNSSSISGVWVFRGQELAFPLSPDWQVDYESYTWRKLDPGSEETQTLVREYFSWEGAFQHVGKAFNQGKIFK
UniProt Q66K89: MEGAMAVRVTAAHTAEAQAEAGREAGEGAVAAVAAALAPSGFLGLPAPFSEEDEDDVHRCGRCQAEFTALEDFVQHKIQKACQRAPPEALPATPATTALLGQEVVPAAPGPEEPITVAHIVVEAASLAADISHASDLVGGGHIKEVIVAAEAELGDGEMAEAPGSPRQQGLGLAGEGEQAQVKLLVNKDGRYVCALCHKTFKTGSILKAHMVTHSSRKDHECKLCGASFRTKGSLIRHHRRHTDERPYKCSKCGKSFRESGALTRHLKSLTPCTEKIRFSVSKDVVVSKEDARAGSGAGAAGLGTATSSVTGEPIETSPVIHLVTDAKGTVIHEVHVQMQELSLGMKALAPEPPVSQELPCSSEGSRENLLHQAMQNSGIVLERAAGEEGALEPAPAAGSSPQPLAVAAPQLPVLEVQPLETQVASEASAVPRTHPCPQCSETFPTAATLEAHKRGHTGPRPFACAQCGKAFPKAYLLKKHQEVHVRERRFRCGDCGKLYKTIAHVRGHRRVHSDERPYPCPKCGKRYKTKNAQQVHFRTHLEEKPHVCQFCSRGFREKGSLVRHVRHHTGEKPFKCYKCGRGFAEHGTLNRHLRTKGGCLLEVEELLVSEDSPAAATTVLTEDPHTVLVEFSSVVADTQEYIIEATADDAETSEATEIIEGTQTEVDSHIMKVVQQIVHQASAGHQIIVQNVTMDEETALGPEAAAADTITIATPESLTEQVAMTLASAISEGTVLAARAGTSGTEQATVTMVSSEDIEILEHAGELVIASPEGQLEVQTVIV

Compound: C[C@@H](Oc1cc(-c2cnn(C3CCNCC3)c2)cnc1N)c1c(Cl)ccc(F)c1Cl [crizotinib]
Experiment: log2 fold change, soluble protein after heating vs DMSO (PISA); higher = thermal stabilisation; K562 lysate, 10 uM; active = over 0.2 and 3.5 SD of the protein, either way, in both replicates (recomputed)
Outline: (§1)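 K562 pellets were dounce-homogenised in PBS pH 7.4 with 1 mM MgCl2, and the crude extract at 1 mg/mL protein was treated with 10 μM compound for 30 min. Aliquots were heated for 3 min across 48°C-58°C, pooled, and brought to 0.5% NP-40 at 4°C; soluble protein was the supernatant after 21,000xg for 90 min. Soluble protein was quantified by TMTpro 16plex LC-MS/MS with channel sums equalised, and reported as log2 fold change in thermal stability against DMSO controls, with values from duplicates.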

Target	log2 fold change
DVL3 (UniProt Q92997)	inactive: -0.138
ECHDC1 (UniProt Q9NTX5)	inactive: 0.046
EDEM2 (UniProt Q9BV94)	inactive: 0.149
EEF2KMT (UniProt Q96G04)	inactive: 0.02
DTYMK (UniProt P23919)	inactive: -0.042
EHHADH (UniProt Q08426)	inactive: -0.001
EEF2K (UniProt O00418)	inactive: -0.049
DTL (UniProt Q9NZJ0)	inactive: -0.035
EED, A0A5F9ZI63	inactive: -0.001
EEA1 (UniProt Q15075)	inactive: 0.018
EFCAB2 isoform 2 (UniProt Q5VUJ9)	inactive: 0.06
EHBP1 isoform 2 (UniProt Q8NDI1)	inactive: -0.041
EFNB1 (UniProt P98172)	inactive: -0.038
DUSP3 (UniProt P51452)	inactive: 0
EHMT1 (UniProt Q9H9B1)	inactive: -0.001
DPY19L4 (UniProt Q7Z388)	inactive: -0.071
EDC4 (UniProt Q6P2E9)	inactive: -0.01
EEF1G isoform 2 (UniProt P26641)	inactive: -0.012
DTD2 (UniProt Q96FN9)	inactive: 0.122
EDF1 (UniProt O60869)	inactive: 0.044
ECM1 isoform 4 (UniProt Q16610)	inactive: -0.033
DYSF isoform 13 (UniProt O75923)	inactive: -0.081
DSC2 (UniProt Q02487)	inactive: -0.027
DYNC1I2 isoform 2 (UniProt Q13409)	inactive: -0.031
DTX3L (UniProt Q8TDB6)	inactive: 0.026
DPY30 (UniProt Q9C005)	inactive: -0.117
E4F1 (UniProt Q66K89)	inactive: -0.092
EHD4 (UniProt Q9H223)	inactive: -0.029

Compound: C[C@H](C1=CC=C(C=C1)C(=O)NC2=C3C=CNC3=NC=C2)N
Experiment: as above
Outline: as §1

Target	log2 fold change
DVL3 (UniProt Q92997)	inactive: -0.311
DYNC2H1 isoform 2 (UniProt Q8NCM8)	inactive: -0.12
ECHDC1 (UniProt Q9NTX5)	inactive: -0.045
EDEM2 (UniProt Q9BV94)	inactive: -0.084
EEF2KMT (UniProt Q96G04)	inactive: 0.182
DTYMK (UniProt P23919)	inactive: 0.055
DUSP22 isoform 2 (UniProt Q9NRW4)	inactive: -0.058
EHHADH (UniProt Q08426)	inactive: 0.016
EEF2K (UniProt O00418)	inactive: -0.004
DTL (UniProt Q9NZJ0)	inactive: 0.059
EED, A0A5F9ZI63	inactive: -0.041
EID1 (UniProt Q9Y6B2)	inactive: -0.02
EEA1 (UniProt Q15075)	inactive: 0.024
EFCAB2 isoform 2 (UniProt Q5VUJ9)	inactive: -0.162
EHBP1 isoform 2 (UniProt Q8NDI1)	inactive: 0.024
EFNB1 (UniProt P98172)	inactive: 0.039

Target	log2 fold change
DUSP3 (UniProt P51452)	inactive: -0.05
EHMT1 (UniProt Q9H9B1)	inactive: -0.062
DPY19L4 (UniProt Q7Z388)	inactive: -0.064
EDC4 (UniProt Q6P2E9)	inactive: -0.044
EEF1G isoform 2 (UniProt P26641)	inactive: 0.037
DTD2 (UniProt Q96FN9)	inactive: -0.094
EDF1 (UniProt O60869)	inactive: -0.033
ECM1 isoform 4 (UniProt Q16610)	inactive: -0.024
DYSF isoform 13 (UniProt O75923)	inactive: -0.102
DSC2 (UniProt Q02487)	inactive: -0.033
DYNC1I2 isoform 2 (UniProt Q13409)	inactive: 0.096
DTX3L (UniProt Q8TDB6)	inactive: -0.058
EFR3A (UniProt Q14156)	inactive: -0.062
DPY30 (UniProt Q9C005)	inactive: 0.27
E4F1 (UniProt Q66K89)	inactive: 0.059
EHD4 (UniProt Q9H223)	inactive: -0.043

Compound: C[C@H](Nc1ncnc2nc[nH]c12)c1cc2cccc(Cl)c2c(=O)n1-c1ccccc1 [duvelisib]
Experiment: as above
Outline: as §1

Target	log2 fold change
DYNC2H1 isoform 2 (UniProt Q8NCM8)	inactive: 0.035
ECHDC1 (UniProt Q9NTX5)	inactive: -0.01
EDEM2 (UniProt Q9BV94)	inactive: 0.081
EEF2KMT (UniProt Q96G04)	inactive: 0.035
DTYMK (UniProt P23919)	inactive: 0.023
DUSP22 isoform 2 (UniProt Q9NRW4)	inactive: 0.038
EHHADH (UniProt Q08426)	inactive: 0.051
EEF2K (UniProt O00418)	inactive: 0.057
DTL (UniProt Q9NZJ0)	inactive: 0.174
EED, A0A5F9ZI63	inactive: -0.006
EID1 (UniProt Q9Y6B2)	active: 0.604
EEA1 (UniProt Q15075)	inactive: 0.003
EHBP1 isoform 2 (UniProt Q8NDI1)	inactive: -0.022
EFNB1 (UniProt P98172)	inactive: 0.022
DUSP3 (UniProt P51452)	inactive: 0.003
EHMT1 (UniProt Q9H9B1)	inactive: -0.083
DPY19L4 (UniProt Q7Z388)	inactive: 0.185
EDC4 (UniProt Q6P2E9)	inactive: 0.016
EEF1G isoform 2 (UniProt P26641)	inactive: -0.028
DTD2 (UniProt Q96FN9)	inactive: -0.005
EDF1 (UniProt O60869)	inactive: 0.066
ECM1 isoform 4 (UniProt Q16610)	inactive: 0.003
DYSF isoform 13 (UniProt O75923)	inactive: -0.06
DSC2 (UniProt Q02487)	inactive: -0.047
DYNC1I2 isoform 2 (UniProt Q13409)	inactive: 0.015
DTX3L (UniProt Q8TDB6)	inactive: 0.076
EFR3A (UniProt Q14156)	inactive: 0.125
DPY30 (UniProt Q9C005)	inactive: 0.052
E4F1 (UniProt Q66K89)	inactive: 0.049
EHD4 (UniProt Q9H223)	inactive: 0.019
